From PubChem BioAssay AID651660 (Broad Institute, 2012)
Screen size: about 1,900 compounds; about 15 (0.8%) were called active.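 The calls were made as follows: active = every replicate shows at least 50% inhibition; inconclusive = mean inhibition at least 50% but some replicate below; inactive = the rest.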 This is one part of the list. Residues, ends and D or L forms follow the SMILES beside them. *: point of attachment. Boc = CC(C)(C)OC(=O)*

Chains of the proteins cited; added tags and fusions are not shown. Lines headed by an entry give the natural chain unless they say otherwise; changes in a name come on top.
UniProt P43351: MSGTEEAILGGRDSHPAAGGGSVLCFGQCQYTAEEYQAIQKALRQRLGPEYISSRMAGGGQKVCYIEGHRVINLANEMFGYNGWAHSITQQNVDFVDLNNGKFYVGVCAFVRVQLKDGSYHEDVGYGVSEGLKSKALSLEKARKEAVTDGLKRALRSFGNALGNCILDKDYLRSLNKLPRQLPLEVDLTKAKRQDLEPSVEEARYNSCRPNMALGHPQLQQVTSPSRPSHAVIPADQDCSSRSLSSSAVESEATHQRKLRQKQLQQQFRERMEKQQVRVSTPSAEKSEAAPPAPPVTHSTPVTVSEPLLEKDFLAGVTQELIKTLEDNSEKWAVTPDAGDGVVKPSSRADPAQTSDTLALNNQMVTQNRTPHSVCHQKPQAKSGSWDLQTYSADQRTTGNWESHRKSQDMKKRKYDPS

Biological target: DNA repair protein RAD52 homolog (Homo sapiens) (UniProt P43351)
Test: RAD52 ssDNA annealing inhibitors, primary screen, biochemical, FRET, single point (AID 651660);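 also: 0% = median of neutral control wells and 100% = median of positive control wells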
Details: Recombinant RAD52 ssDNA annealing, FRET fluorescence, 30 min; at 18.7 µM; active compounds read high

Row | Compound | inhibition
1 | CC(C)c1ccccc1OCCNC(=S)NC(=O)c1cccnc1 | inactive: -11.8%
2 | COc1c2occc2c(OC)c2c(=O)cc(C)oc12 | inactive: 8.21%
3 | CSc1cccc(NC(=O)/C=C/c2ccccc2)c1 | inactive: 5.27%
4 | COc1ccc(CCN(C)CCCC(C#N)(c2cc(OC)c(OC)c(OC)c2)C(C)C)cc1OC (stereo not drawn) | inactive: -3.47%
5 | CC(C)(C)C(=O)N1CCCC1C(=O)O (stereo not drawn) | inactive: -3.81%
6 | COc1ccc(-c2coc3cc(OC(=O)N4CCOCC4)ccc3c2=O)cc1 | inactive: -0.331%
7 | O=C(O)C(O)c1ccccc1 (stereo not drawn) | inactive: -6.03%
8 | CC1(C)CC(NC(=O)C23CCC(C)(C(=O)C2=O)C3(C)C)CC(C)(C)N1 (stereo not drawn) | inactive: -9.12%
9 | Nc1cccc2c1nnn2C1OC(CO)C(O)C(O)C1O (stereo not drawn) | inactive: 3.85%
10 | Cc1ccccc1C(=O)Oc1ccc(Sc2ccc(O)cc2)cc1 | inactive: 7.65%
11 | CC(C)CC(=O)OC1C(N2CCOCC2)c2c(ccc(/C=C/C(=O)N3CCOCC3)c2O)OC1(C)C (stereo not drawn) | inactive: -11.1%
12 | CCN(CC)C1=C(Cl)C(=O)C(Cl)C12OCCO2 (stereo not drawn) | inactive: -5.84%
13 | O=C(NCCN1CCCCC1)c1c(O)c2ccccc2[nH]c1=O | inactive: 10.9%
14 | Cc1ccc(C(=O)NC(=S)NCCCN2CCOCC2)cc1 | inactive: -5.32%
15 | Cc1ccc(N2CCN(C(=S)c3ccc(-c4cccc([N+](=O)[O-])c4)o3)CC2)cc1 | inactive: 8.61%
16 | COc1ccc(-c2cc(=Nc3ccc(C)cc3)c3ccccc3o2)cc1 | inactive: 2.9%
17 | COc1cc(C2CC(=O)NC3=C2C(=O)CC(C)(C)C3)ccc1O (stereo not drawn) | inactive: 1.28%
18 | N#C/C(=C/c1ccccc1)C(=O)NCc1ccccc1 | inactive: 0.216%
19 | O=C(CCC1CCCN(C(=O)c2ccsc2)C1)NCc1ccc(F)c(F)c1 (stereo not drawn) | inactive: 12.5%
20 | Cc1cccc(C(=O)c2cccc(C)c2)c1 | inactive: -3.42%
21 | Cc1cnc(NC(=O)C2=C(O)c3ccccc3S(=O)(=O)N2C)s1 | inactive: 1.11%
22 | O=C(O)CCCc1ccccc1 | inactive: -13.2%
23 | CC1(C)O[C@@H]2C[C@H]3[C@@H]4CCC5=CC(=O)C=C[C@]5(C)[C@@]4(F)[C@@H](O)C[C@]3(C)[C@]2(C(=O)CO)O1 | inactive: -0.958%
24 | COc1ccc(/C=C\c2nc(=O)c3ccccc3o2)cc1 | inactive: -13.4%

Row | Compound | inhibition
25 | O=C(NCCc1c[nH]c2ccccc12)c1cccnc1 | inactive: -5.07%
26 | CCCOc1ccc(-c2cc(C(=O)NCC3CCCO3)c3ccccc3n2)cc1 (stereo not drawn) | inactive: 1.26%
27 | CC1CC(OC(=O)C(O)c2ccccc2)CC(C)(C)N1C (stereo not drawn) | inactive: -5.83%
28 | CC(=O)OCC(OC(C)=O)C(OC(C)=O)C(OC(C)=O)C(=O)Nc1cccc(C)c1 (stereo not drawn) | inactive: -6.47%
29 | Cc1nnc(NS(=O)(=O)c2ccc(N)cc2)s1 | inactive: 5.04%
30 | CCN1CCN(c2cc3c(cc2F)c(=O)c(C(=O)O)cn3C2CC2)CC1 | inactive: 12.1%
31 | CC(C)N1C(=O)/C(=C\c2nc3ccccc3c(=O)[nH]2)c2ccccc21 | inactive: 7.7%
32 | O=C1ON=C(c2ccc(Cl)cc2)/C1=C/c1ccc(O)cc1 | inactive: -74.5%
33 | Cc1ccc(Cl)c(Nc2ccccc2C(=O)O)c1Cl | inactive: -11.1%
34 | CC(C(=O)O)c1ccc(N2Cc3ccccc3C2=O)cc1 (stereo not drawn) | inactive: -5.86%
35 | COc1cccc(=O)c2c(C)n(CC(=O)c3ccccc3)c(C)c12 | inactive: -138%
36 | CCn1nc(C(=O)O)c(=O)c2cc3c(cc21)OCO3 | inactive: -1.73%
37 | CCCN1CCC(NC(=O)Nc2ccc(Br)cc2)CC1 | inactive: 3.41%
38 | Fc1ccc(-n2cc(CNCCc3ccccn3)c(-c3ccccc3Cl)n2)cc1 | inactive: 16.8%
39 | CC(=O)Nc1ccc(S(=O)(=O)c2ccc(N)cc2)cc1 | inactive: -10.6%
40 | CCS(=O)(=O)Nc1cc(OC)c(OC)cc1Cc1nccc2cc(OC)c(OC)cc12 | inactive: 8.07%
41 | CN(C)c1ccc(CNCCC(Cc2ccccc2)c2ccco2)cc1 (stereo not drawn) | inactive: 44%
42 | CCC(C(=O)OCCN(CC)CC)c1ccccc1 (stereo not drawn) | inactive: -8.09%
43 | COc1ccc(N2C(=O)[C@@H]3Cc4ccccc4CN3C2=O)cc1 | inactive: -7.83%
44 | CC(C)(C)n1c(=O)[nH]c2c(c1=O)CCC2 | inactive: -8.49%
45 | O=C1CC2(CCCC2)CC(=O)N1CCCCN1CCN(c2ncccn2)CC1 | inactive: -1.6%
46 | CC[C@H]1OC(=O)[C@H](C)[C@@H](O[C@H]2C[C@@](C)(OC)[C@@H](O)[C@H](C)O2)[C@H](C)[C@@H](O[C@@H]2O[C@H](C)C[C@H](N(C)C)[C@H]2O)[C@](C)(O)C[C@@H](C)[C@@H]2N[C@@H](COCCOC)O[C@H]([C@H]2C)[C@]1(C)O | inactive: 14.9%
47 | COc1ccc2c(CC(=O)NCC3CCC(C(=O)O)CC3)cc(=O)oc2c1 (stereo not drawn) | inactive: -4.32%
48 | CCOc1ccccc1OCCOc1ccc(F)cc1 | inactive: 5.05%

Entries shown so far that contain a Cl atom:
Row | Compound | inhibition
12 | CCN(CC)C1=C(Cl)C(=O)C(Cl)C12OCCO2 (stereo not drawn) | inactive: -5.84%
32 | O=C1ON=C(c2ccc(Cl)cc2)/C1=C/c1ccc(O)cc1 | inactive: -74.5%
33 | Cc1ccc(Cl)c(Nc2ccccc2C(=O)O)c1Cl | inactive: -11.1%
38 | Fc1ccc(-n2cc(CNCCc3ccccn3)c(-c3ccccc3Cl)n2)cc1 | inactive: 16.8%

(listing goes on)

Row | Compound | inhibition
49 | O=C1C(Cc2c[nH]c3ccccc23)NC(=S)N1Cc1ccccc1 (stereo not drawn) | inactive: -79.2%
50 | O=C(COc1ccccc1)Nc1ccc2c(c1)C(=O)N(CC1CCCO1)C2=O (stereo not drawn) | inactive: -9.17%
51 | COc1cc(Cl)cc2c1Sc1ccccc1/C2=C/CCN(C)C | inactive: 45.5%
52 | CCOC(=O)c1cccc(C(=O)OCC)n1 | inactive: -3.84%
53 | O=C(Cc1ccccc1[N+](=O)[O-])NCCCN1CCOCC1 | inactive: 0.272%
54 | COc1ccc(C2CC(c3c(O)cc(C)oc3=O)=NCCS2)c(OC)c1 (stereo not drawn) | inactive: -81.1%
55 | CN1[C@@H]2CC[C@H]1CC(OC(=O)C(CO)c1ccccc1)C2 (stereo partly drawn) | inactive: -0.351%
56 | COc1ccc(CNCCC2(C(C)C)CCOC(C)(C)C2)cc1 (stereo not drawn) | inactive: 1.07%
57 | CC1Cc2ccccc2N1NC(=O)c1ccc(Cl)c(S(N)(=O)=O)c1 (stereo not drawn) | inactive: 0.865%
58 | CC(C)(C)[C@]1(O)CCN2C[C@H]3c4ccccc4CCc4cccc(c43)[C@@H]2C1 | inactive: 3.15%
59 | Cn1c2[n+](c3ccc(Cl)cc3c1=O)Cc1ccccc1-2 | inactive: 7.93%
60 | O=C(NCCC(c1ccccc1)c1ccco1)c1cccs1 (stereo not drawn) | inactive: -5.2%
61 | CC(=O)Oc1cc2oc(=O)cc(C)c2cc1OC(C)=O | inactive: 0.129%
62 | CC(=O)O[C@H]1C(=O)[C@@]2(C)[C@H]([C@H](OC(=O)c3ccccc3)[C@]3(O)C[C@H](OC(=O)[C@H](O)C(NC(=O)c4ccccc4)c4ccccc4)C(C)=C1C3(C)C)[C@]1(OC(C)=O)CO[C@@H]1C[C@@H]2O (stereo partly drawn) | inactive: 5.9%
63 | Cc1ccc(C(=O)Nc2ccccc2C(=O)NC(C(=O)O)C(C)C)cc1 (stereo not drawn) | inactive: -13.2%
64 | O=C(CCCn1c(=O)oc2ccccc21)N1CCN(c2ccc(F)cc2)CC1 | inactive: -3.01%
65 | CCn1c(SCC(=O)c2ccccc2)nc2ccccc2c1=O | inactive: 3.94%
66 | COc1ccc(C(=O)C2CCCCC2=O)cc1 (stereo not drawn) | inactive: -11.5%
67 | Cc1ccc(-n2cc(CNCCN3CCOC3=O)c(-c3ccc(F)cc3)n2)cc1 | inactive: 7.33%
68 | Nc1ccc(S(N)(=O)=O)cc1N | inactive: -488%
69 | COc1ccc(C2C(=O)c3ccccc3C2=O)cc1 | inactive: -10.6%
70 | Cc1cccc(C)c1NC(=O)C1CCCCN1C (stereo not drawn) | inactive: -1.92%
71 | CCOC(=O)c1c(C)oc2cc(Br)c(OC(C)C(=O)OCC)cc12 (stereo not drawn) | inactive: 7%
72 | CN1C(C(=O)Nc2ccccn2)=C(O)c2sccc2S1(=O)=O | inactive: -3.88%

Row | Compound | inhibition
73 | Cc1ncc([N+](=O)[O-])n1CC(O)CCl (stereo not drawn) | inactive: 0.153%
74 | CCOC(=O)C1=C(N)Oc2c(oc(CO)cc2=O)C1c1ccc(F)c(F)c1 (stereo not drawn) | inactive: -14.2%
75 | C[C@]12CC[C@H]3C(=CCc4cc(O)ccc43)[C@@H]1CCC2=O | inactive: 5.47%
76 | CCc1ccc2oc(=O)cc(CN3CCC(C)CC3)c2c1 | inactive: -8.34%
77 | CCOC(=O)C1C2C=CC3(CN(c4ccc(Cl)c(F)c4)C(=O)C13)O2 (stereo not drawn) | inactive: -3.23%
78 | COc1ccc(CNCCC(c2ccc(F)cc2)c2ccc(OC(C)C)cc2)cc1OC (stereo not drawn) | active: 57.6%
79 | CC(C)COCC1CC2(CC(C)(c3csc(N)n3)OC2=O)C(=O)O1 (stereo not drawn) | inactive: -11.3%
80 | COc1c(C)cc(C(=O)C2CCCN(Cc3ccc(Oc4ncccn4)cc3)C2)cc1C (stereo not drawn) | inactive: -5.97%
81 | Cn1c(=O)c2[nH]cnc2n(C)c1=O | inactive: -3.99%
82 | C#C[C@]1(O)CC[C@H]2[C@@H]3CCc4cc(OC5CCCC5)ccc4[C@H]3CC[C@@]21C | inactive: -10.8%
83 | Cc1ccnc2c1NC(=O)c1cccnc1N2C1CC1 | inactive: 48.7%
84 | CN(C)CCC=C1c2ccccc2CCc2ccccc21 | inactive: -4.65%
85 | COc1ccc(-c2c[n+](CC(=O)OC3CC(C)CCC3C(C)C)c3n2CCC3)cc1 (stereo not drawn) | inactive: 33.7%
86 | O=C(COc1ccccc1)N1CCN(c2ccccc2)CC1 | inactive: -4.76%
87 | COc1cc(C(=O)OCCn2c(=O)c3c(ncn3CCN(C)C)n(C)c2=O)cc(OC)c1OC | inactive: -2.31%
88 | COc1ccc(CN2CCC(=O)NC2=O)cc1 | inactive: 5.32%
89 | COC(=O)c1cc(OC)c(OC)cc1NC(=O)Nc1ccc(OC)cc1OC | inactive: -2.68%
90 | COCCn1c(SCCOc2ccccc2)nc2ccccc2c1=O | inactive: 1.61%
91 | CC(C)(C)OC(=O)N1CCCC1C(=O)NC(Cc1ccccc1)C(=O)O (stereo not drawn) (Boc-Pro-Phe-OH; configuration not given here) | inactive: 0.173%
92 | CC[N+]1(C)CC2CCC(C)(C1)C2(C)C (stereo not drawn) | inactive: -10.8%
93 | CC(CCc1ccccc1)NC(=O)/C=C/c1ccccc1 (stereo not drawn) | inactive: -0.182%

Part of the list above in order of count of non-hydrogen atoms, falling.
Row | Compound | inhibition
80 | COc1c(C)cc(C(=O)C2CCCN(Cc3ccc(Oc4ncccn4)cc3)C2)cc1C (stereo not drawn) | inactive: -5.97%
74 | CCOC(=O)C1=C(N)Oc2c(oc(CO)cc2=O)C1c1ccc(F)c(F)c1 (stereo not drawn) | inactive: -14.2%
90 | COCCn1c(SCCOc2ccccc2)nc2ccccc2c1=O | inactive: 1.61%
